Data as given in publication PMC12424427.
These are yes or no findings as the source states them, for the method shown. In cells and extracts the contact can be indirect. Some results given as binding are weak or reduced against the parent protein; the word gives no strength. For some assays here: Sequences can lack the tags named with a protein.

Chains of the proteins cited; added tags and fusions are not shown.
UniProt Q9UKV8: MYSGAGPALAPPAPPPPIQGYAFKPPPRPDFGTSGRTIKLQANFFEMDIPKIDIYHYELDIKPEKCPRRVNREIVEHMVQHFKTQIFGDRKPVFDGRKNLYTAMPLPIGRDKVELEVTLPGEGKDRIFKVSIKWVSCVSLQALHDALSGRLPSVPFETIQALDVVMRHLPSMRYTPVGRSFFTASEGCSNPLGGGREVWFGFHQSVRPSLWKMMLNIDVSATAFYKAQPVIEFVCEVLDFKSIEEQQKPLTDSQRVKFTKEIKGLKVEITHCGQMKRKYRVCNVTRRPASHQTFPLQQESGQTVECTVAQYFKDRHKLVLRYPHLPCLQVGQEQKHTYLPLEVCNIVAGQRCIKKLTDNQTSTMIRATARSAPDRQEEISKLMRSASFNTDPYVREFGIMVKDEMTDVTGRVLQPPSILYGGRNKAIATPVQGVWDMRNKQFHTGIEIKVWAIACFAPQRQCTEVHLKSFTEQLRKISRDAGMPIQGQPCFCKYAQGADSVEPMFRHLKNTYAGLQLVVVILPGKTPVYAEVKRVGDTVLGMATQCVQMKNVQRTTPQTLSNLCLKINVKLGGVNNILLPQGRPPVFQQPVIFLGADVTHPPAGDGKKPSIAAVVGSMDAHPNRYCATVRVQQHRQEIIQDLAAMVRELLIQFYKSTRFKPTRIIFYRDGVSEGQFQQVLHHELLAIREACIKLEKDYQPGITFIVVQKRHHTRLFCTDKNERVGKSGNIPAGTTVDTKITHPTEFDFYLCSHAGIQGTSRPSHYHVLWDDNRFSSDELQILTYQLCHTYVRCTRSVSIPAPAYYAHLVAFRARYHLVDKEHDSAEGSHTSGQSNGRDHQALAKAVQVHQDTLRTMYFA
UniProt Q9UPY3: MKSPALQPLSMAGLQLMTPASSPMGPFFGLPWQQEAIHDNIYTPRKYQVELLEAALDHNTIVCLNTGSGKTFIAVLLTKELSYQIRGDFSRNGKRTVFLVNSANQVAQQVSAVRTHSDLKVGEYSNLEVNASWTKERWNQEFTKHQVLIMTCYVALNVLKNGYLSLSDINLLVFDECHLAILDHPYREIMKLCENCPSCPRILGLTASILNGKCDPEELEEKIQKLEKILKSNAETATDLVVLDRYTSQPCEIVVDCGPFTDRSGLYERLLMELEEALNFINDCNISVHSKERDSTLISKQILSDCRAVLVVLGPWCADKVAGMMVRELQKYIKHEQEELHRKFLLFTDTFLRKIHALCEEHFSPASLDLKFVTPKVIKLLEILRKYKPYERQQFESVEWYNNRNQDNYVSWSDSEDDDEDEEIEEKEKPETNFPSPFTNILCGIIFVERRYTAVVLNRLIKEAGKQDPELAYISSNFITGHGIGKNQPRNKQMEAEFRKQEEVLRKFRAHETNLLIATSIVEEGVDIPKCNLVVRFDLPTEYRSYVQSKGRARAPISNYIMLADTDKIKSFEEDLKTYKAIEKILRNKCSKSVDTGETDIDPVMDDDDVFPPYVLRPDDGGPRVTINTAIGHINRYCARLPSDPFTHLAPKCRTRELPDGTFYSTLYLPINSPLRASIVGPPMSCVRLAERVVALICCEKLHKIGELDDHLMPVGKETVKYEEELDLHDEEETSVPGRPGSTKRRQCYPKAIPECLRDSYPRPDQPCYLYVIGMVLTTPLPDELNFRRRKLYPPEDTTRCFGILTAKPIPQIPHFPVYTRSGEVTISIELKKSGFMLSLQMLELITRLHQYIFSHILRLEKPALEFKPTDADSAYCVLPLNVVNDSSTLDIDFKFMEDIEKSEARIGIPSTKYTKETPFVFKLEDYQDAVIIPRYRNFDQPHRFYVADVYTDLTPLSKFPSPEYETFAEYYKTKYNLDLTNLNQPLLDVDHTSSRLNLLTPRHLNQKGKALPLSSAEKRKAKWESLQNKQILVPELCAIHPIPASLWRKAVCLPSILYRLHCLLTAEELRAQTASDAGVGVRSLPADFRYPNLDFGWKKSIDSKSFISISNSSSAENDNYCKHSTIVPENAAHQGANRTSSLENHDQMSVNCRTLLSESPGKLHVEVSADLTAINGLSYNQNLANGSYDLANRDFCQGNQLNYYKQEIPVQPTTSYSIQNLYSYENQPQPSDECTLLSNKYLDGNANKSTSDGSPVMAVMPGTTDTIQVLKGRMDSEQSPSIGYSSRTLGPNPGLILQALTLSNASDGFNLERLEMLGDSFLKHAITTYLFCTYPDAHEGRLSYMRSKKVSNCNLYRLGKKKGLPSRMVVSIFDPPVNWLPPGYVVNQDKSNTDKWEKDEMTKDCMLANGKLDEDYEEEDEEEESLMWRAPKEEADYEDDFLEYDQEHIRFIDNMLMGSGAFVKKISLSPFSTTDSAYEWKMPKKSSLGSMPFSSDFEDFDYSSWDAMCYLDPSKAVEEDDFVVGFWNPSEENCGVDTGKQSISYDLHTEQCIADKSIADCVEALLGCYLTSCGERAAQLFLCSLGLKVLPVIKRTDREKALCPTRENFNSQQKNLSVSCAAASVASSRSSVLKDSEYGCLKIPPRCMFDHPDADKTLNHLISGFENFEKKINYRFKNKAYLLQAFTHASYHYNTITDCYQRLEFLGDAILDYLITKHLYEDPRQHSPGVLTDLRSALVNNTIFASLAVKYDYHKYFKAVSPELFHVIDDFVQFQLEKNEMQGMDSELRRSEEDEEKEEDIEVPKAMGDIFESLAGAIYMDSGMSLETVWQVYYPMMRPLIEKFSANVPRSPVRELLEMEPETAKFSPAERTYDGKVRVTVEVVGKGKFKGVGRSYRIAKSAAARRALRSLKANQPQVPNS

How the values were obtained:
[1] = target: T1, RIG-I, endogenous (human (endogenous in A549)) (UniProt O95786); assay: co-IP
T1 sequence: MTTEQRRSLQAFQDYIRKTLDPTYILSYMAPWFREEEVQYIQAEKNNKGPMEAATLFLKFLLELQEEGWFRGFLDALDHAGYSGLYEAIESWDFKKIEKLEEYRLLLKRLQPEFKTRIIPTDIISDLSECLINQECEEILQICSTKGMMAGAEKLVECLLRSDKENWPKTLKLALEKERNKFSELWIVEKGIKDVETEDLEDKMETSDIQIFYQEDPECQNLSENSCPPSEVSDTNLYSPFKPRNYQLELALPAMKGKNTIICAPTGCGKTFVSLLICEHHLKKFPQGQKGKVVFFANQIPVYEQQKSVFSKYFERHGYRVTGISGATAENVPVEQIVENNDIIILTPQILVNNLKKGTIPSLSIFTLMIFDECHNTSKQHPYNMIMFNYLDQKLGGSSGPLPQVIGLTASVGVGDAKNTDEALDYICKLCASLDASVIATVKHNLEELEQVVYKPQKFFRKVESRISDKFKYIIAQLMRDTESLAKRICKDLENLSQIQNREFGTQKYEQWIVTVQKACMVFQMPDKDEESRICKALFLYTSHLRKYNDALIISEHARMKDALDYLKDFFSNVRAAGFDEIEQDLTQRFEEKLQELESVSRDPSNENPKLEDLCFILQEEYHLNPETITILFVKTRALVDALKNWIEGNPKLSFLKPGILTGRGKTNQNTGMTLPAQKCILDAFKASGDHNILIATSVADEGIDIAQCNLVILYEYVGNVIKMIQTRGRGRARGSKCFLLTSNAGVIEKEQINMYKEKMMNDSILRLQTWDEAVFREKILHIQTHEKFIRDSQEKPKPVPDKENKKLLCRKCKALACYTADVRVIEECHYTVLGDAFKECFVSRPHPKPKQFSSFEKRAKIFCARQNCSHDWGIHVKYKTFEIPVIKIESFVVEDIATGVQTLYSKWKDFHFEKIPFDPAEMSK

[2] = target: Argonaute 2 (AGO2), endogenous (human (endogenous in A549)) (UniProt Q9UKV8); assay: co-IP; Figure S5 (legend not shown); interaction with DICER under infection conditions
[3] = target: T2, Flag-RIG-I-Helicase-231∼790aa (UniProt O95786); assay: co-IP
T2 sequence: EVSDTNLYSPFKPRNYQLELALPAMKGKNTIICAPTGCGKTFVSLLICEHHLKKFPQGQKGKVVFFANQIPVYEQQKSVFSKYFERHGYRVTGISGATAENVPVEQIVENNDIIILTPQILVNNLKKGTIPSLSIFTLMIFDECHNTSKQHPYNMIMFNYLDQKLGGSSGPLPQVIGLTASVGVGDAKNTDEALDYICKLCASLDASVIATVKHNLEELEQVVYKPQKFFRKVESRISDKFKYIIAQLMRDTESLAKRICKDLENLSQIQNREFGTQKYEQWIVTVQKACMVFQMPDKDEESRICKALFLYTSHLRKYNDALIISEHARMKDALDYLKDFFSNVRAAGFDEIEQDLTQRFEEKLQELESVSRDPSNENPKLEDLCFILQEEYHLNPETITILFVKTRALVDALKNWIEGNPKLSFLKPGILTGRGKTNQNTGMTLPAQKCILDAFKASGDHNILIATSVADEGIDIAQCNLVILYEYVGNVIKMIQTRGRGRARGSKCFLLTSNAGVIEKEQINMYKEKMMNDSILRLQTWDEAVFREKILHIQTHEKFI

Flag-RIG-I- CARD-1∼230aa = target: T3, Flag-RIG-I- CARD-1∼230aa (UniProt O95786); assay: co-IP
T3 sequence: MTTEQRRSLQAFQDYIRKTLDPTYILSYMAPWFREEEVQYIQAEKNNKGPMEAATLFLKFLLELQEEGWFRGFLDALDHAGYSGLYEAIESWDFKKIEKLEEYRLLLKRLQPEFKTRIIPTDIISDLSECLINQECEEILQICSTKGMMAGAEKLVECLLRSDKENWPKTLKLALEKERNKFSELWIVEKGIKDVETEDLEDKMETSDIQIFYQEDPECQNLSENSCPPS

[4] = target: T4, Flag-RIG-I, full length (FL) (UniProt O95786); assay: co-IP
T4 sequence: T1 sequence

Argonaute 2 (AGO2), endogenous (from UniProt Q9UKV8 1-859)
binding [1]: binds

DICER, endogenous (from UniProt Q9UPY3 1-1922)
binding [2]: binds

V5-AGO2, full length (from UniProt Q9UKV8 1-859)
binding [3]: binds
binding (Flag-RIG-I- CARD-1∼230aa): binds
binding [4]: binds
